Measurements taken from patent US20230293562A1, “[…] COMBINATION OF GALNAC-OLIGO[…] AND SAPONIN, AND USES THEREOF” (SAPREME TECHNOLOGIES B.V., priority 2020, published 2023).
Some of these results come from one statement about several compounds together. [BNANC] = BNA^NC bridged nucleic acid nucleoside; {ThiolC6} = thiol C6 linker; d = 2'-deoxy (DNA)

System: human primary hepatocytes (ASGPR1+)
Experiment: Cell viability assay on human primary hepatocytes
Assay type: cell-based
Details: alone, without SO1861-EMCH
Method: ApoBBNA (ApoBBNA#01, targeting human ApoB mRNA) was conjugated to trivalent-GalNAc ((GalNAc)3) (FIG. 6) and primary hepatocytes (ASGPR1^+) cells were treated with a range of concentrations of (GalNAc)3-ApoBBNA#01 with and without addition of 2000 nM SO1861. ApoB gene silencing in primary hepatocytes (ASGPR1^+) cells was determined.
ApoB gene silencing in primary hepatocytes (ASGPR1^+) cells was determined. […] The dotted line in the ApoBBNA#02 RNAiMAX indicates concentrations at which toxicity and cell death occurs.
Briefly, the MTS solution was diluted 20× in DMEM without phenol red (PAN-Biotech GmbH) supplemented with 10% FBS. The cells were washed once with 200 µL/PBS well, after which 100 µL diluted MTS solution was added/well. The plate was incubated for approximately 20-30 minutes at 37° C. Subsequently, the OD at 492 nm was measured on a Thermo Scientific Multiskan FC plate reader (Thermo Scientific).

Substance “ApoBBNA#02: murine and human sequence-compatible ApoB BNA^NC oligonucleotide 5′-GCattggtatTCA-3′ [SEQ ID NO: 12], fully phosphorothioated (antisense GCATTGGTATTCA; sugars from the 5' end [BNANC]2 d8 [BNANC]3, all phosphorothioate, 5' {ThiolC6}, methylation of C not given here)” has an IC50 greater than 10 µM.
